These are yes or no findings as the source states them, for the method shown. Binding seen in cells or lysates may run through a third protein. A yes stands for co-enrichment or nearness to the bait. Other partners may have been found. For some of these results: No binding means not detected with the bait. For some of these results: Where a sequence is shown, tags or fusion partners need not be part of it.
Key:
[1] = molecular target: T1, CLUH lacking TPR domain (BioID2-3xHA-CLUH∆TPR) (human) (UniProt O75153); assay: proximity labelling; BioID in HCT116 CLUH KO cells stably expressing BioID2-3xHA-CLUH, BioID2-3xHA-CLUH∆TPR or BioID2-3xHA-GFP; 24 h, 50 μM biotin; streptavidin pull-down, western blot (Fig. 5B)
T1 sequence: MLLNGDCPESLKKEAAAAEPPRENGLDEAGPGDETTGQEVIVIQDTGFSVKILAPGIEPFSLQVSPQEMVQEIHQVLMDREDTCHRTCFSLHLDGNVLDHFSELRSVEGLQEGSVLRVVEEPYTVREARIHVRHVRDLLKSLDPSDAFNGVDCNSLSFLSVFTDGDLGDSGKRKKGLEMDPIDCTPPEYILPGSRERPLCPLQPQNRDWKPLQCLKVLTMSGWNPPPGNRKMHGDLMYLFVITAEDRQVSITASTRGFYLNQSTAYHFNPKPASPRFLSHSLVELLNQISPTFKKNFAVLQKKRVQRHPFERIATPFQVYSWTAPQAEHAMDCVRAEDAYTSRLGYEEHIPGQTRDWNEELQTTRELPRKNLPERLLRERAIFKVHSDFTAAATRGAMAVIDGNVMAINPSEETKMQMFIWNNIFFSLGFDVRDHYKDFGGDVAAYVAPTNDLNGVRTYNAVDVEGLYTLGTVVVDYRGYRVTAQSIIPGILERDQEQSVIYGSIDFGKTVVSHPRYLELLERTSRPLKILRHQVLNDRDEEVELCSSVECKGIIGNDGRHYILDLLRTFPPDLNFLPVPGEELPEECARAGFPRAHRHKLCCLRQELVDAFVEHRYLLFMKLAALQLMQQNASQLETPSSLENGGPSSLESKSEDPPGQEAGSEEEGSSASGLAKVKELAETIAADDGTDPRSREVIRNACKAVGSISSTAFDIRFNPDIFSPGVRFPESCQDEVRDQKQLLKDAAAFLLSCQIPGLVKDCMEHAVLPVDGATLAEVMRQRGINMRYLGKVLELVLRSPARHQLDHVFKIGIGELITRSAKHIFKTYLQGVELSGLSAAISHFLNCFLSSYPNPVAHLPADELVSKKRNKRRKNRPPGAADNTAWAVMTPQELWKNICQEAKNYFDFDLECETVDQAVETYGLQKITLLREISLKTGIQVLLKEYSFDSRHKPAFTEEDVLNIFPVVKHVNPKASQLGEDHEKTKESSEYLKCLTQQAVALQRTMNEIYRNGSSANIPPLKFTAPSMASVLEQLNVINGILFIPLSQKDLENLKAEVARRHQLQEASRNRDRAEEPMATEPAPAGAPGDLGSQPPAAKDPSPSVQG

Sequences of proteins named here, by UniProt entry; tags and fusion partners are left off. Residues count along the entry.
UniProt P25705, residues 44-553: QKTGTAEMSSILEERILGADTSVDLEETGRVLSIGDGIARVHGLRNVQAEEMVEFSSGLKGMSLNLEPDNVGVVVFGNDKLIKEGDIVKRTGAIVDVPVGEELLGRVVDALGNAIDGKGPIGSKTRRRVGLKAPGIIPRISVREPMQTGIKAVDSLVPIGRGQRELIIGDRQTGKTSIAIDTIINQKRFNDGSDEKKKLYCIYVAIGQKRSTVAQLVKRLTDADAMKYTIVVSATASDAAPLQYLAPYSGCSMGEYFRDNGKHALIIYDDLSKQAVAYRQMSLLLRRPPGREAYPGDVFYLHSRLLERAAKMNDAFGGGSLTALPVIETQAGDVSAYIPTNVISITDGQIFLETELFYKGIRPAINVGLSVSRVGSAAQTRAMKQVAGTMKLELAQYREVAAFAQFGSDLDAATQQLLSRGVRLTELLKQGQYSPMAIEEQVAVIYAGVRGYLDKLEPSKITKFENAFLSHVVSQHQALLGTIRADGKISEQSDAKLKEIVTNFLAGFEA

[2] = molecular target: T2, BioID2-tagged wildtype human CLUH (BioID2-3xHA-CLUH) (human) (UniProt O75153); assay: as above
T2 sequence: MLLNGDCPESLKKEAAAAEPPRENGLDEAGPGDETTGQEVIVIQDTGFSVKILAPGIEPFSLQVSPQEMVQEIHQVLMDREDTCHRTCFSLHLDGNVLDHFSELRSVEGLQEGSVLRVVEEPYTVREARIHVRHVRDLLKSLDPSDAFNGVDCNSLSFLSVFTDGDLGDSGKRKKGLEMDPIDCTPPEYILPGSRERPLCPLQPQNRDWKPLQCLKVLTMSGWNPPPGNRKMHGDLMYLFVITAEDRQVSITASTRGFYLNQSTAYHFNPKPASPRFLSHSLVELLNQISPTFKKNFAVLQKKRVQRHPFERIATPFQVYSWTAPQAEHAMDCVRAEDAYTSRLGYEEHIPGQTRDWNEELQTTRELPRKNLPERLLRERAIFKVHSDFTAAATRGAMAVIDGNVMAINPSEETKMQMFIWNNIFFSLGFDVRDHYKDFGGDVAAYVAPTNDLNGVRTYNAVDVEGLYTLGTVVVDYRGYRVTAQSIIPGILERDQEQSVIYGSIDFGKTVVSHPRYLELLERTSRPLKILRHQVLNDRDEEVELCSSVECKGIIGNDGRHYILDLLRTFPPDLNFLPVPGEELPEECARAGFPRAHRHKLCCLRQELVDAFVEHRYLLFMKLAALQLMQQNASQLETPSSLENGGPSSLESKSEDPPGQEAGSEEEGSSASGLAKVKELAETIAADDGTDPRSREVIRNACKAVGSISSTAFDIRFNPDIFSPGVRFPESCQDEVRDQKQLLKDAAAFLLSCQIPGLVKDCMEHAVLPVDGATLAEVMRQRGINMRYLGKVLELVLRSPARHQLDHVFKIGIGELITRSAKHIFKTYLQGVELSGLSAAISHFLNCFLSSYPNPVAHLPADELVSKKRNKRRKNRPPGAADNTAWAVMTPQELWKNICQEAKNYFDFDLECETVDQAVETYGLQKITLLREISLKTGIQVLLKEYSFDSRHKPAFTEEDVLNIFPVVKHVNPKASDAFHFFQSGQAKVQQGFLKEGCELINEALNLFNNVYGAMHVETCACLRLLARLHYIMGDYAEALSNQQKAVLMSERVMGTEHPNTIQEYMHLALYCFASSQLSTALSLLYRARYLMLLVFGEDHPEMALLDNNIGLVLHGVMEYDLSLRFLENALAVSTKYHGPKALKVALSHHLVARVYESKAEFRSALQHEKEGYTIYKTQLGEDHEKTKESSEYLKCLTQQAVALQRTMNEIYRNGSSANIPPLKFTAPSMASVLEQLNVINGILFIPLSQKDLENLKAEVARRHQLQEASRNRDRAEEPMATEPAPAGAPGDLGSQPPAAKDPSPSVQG

[3] = molecular target: T3, human CLUH fused to TurboID in N-terminal (TurboID-CLUH) (human) (UniProt O75153); assay: proximity labelling; TurboID in HCT116 stably expressing TurboID-CLUH, control TurboID-GFP; 30 min and 16 h, 50 μM biotin; streptavidin beads; LC-MS/MS
T3 sequence: T2 sequence

[4] = molecular target: T4, mouse CLUH (mCLUH) protein fused, in N-terminal, to a modified biotin ligase protein (BioID2-CLUH) (mouse) (UniProt Q5SW19); assay: proximity labelling; BioID in HCT116 stably expressing BioID2-mCLUH, control GFP-BioID2; 24 h, 50 μM biotin; streptavidin beads; LC-MS/MS, three replicates
T4 sequence: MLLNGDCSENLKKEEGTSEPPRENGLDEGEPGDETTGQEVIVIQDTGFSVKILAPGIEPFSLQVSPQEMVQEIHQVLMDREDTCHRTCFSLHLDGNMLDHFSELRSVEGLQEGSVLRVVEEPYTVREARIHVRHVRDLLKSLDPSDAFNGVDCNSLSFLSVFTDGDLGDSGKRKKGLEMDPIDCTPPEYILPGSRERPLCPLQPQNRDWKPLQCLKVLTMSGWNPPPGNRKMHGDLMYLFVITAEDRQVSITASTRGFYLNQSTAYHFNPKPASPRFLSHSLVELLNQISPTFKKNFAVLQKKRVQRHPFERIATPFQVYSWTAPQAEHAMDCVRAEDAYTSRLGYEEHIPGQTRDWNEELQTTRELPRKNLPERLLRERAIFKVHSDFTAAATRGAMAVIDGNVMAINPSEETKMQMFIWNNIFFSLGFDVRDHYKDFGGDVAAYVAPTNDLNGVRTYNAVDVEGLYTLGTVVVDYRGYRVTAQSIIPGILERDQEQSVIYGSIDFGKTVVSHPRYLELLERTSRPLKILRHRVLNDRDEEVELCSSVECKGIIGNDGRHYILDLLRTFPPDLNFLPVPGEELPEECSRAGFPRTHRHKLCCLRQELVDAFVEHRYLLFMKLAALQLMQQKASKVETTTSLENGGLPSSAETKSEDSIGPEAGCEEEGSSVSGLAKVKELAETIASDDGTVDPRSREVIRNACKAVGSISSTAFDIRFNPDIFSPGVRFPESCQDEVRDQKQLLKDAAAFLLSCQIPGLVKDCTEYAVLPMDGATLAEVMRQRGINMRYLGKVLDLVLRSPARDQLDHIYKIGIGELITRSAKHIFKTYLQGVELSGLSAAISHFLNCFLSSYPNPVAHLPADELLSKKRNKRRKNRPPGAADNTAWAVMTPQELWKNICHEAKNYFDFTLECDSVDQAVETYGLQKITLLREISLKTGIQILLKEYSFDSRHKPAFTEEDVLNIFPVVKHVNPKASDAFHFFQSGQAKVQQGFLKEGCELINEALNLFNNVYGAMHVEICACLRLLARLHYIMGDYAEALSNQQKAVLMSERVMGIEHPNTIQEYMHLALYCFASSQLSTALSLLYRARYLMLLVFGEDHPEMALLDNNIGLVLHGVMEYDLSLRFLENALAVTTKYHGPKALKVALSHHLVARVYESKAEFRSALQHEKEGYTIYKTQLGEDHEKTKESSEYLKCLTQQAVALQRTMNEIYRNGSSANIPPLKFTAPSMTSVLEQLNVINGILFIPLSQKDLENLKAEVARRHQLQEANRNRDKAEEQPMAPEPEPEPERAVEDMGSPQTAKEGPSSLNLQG

[5] = molecular target: T5, mouse CLUH (mCLUH) protein tagged with a triple HA epitope (3xHA) (mouse) (UniProt Q5SW19); assay: affinity purification with mass spectrometry; anti-HA-coupled beads on extracts of HCT116 stably expressing 3xHA-mCLUH; wild-type cells as IP mock; LC-MS/MS, three replicates, spectral counting, FC 2 and 10% FDR
T5 sequence: T4 sequence

[6] = molecular target: T6, endogenously 3xHA-tagged CLUH protein (mESCs knock-in) (mouse (endogenous in E14 mESCs)) (UniProt Q5SW19); assay: affinity purification with mass spectrometry; anti-HA-coupled beads on extracts of mESCs with endogenously 3xHA-tagged CLUH (clone G12); wild-type cells as IP mock; LC-MS/MS, three replicates
T6 sequence: T4 sequence

“ATP5A (endogenous, HCT116) (from UniProt P25705 44-553)” was tested, and the binding [1] was “no binding” and the binding [2] was “binds”.

B1: KNSTRN (endogenous, HCT116) (protein, UniProt Q9Y448 1-316)
chain: MAAPEAPPLDRVFRTTWLSTECDSHPLPPSYRKFLFETQAADLAGGTTVAAGNLLNESEKDCGQDRRAPGVQPCRLVTMTSVVKTVYSLQPPSALSGGQPADTQTRATSKSLLPVRSKEVDVSKQLHSGGPENDVTKITKLRRENGQMKATDTATRRNVRKGYKPLSKQKSEEELKDKNQLLEAVNKQLHQKLTETQGELKDLTQKVELLEKFRDNCLAILESKGLDPALGSETLASRQESTTDHMDSMLLLETLQEELKLFNETAKKQMEELQALKVKLEMKEERVRFLEQQTLCNNQVNDLTTALKEMEQLLEM
B1 was tested, and the binding [3] was “binds”, the binding [4] was “binds” and the binding [5] was “binds”.

B2: SPAG5 (endogenous, mESCs) (protein, UniProt Q7TME2 1-1165)
chain: MWRVKTLNLGLSPSPQKGKPAMSTPLRELKLQPEALADSGKGPSMISALTPYLCRLELKERCNNSSPVDFINTENNFLSEQFSHPSTHIEACQRESDPTPESNSLFHTLEEAIETVDDFVVDPRDDSIVESMVLLPFSLGQQQDLMLQAHLDTTAERTKSSLNESLGLEDLVGKEVAPCVEDSLTEIVAIRPEQPTFQDPPLGPSDTEDAPVDLVPSENVLNFSLARLSPSAVLAQDFSVDHVDPGEETVENRVLQEMETSFPTFPEEAELGDQAPAANAEAVSPLYLTSSLVEMGPREAPGPTVEDASRIPGLESETWMSPLAWLEKGVNTSVMLQNLRQSLSFSSVLQDAAVGNTPLATCSVGTSFTPPAPLEVGTKDSTSETERLLLGCRPPDLATLSRHDLEENLLNSLVLLEVLSHQLQAWKSQLTVPHREARDSSTQTDSSPCGVTKTPKHLQDSKEIRQALLQARNVMQSWGLVSGDLLSLLHLSLTHVQEGRVTVSQESQRSKTLVSSCSRVLKKLKAKLQSLKTECEEARHSKEMALKGKAAAEAVLEAFRAHASQRISQLEQGLTSMQEFRGLLQEAQTQLIGLHTEQKELAQQTVSLSSALQQDWTSVQLNYGIWAALLSWSRELTKKLTAKSRQALQERDAAIEEKKQVVKEVEQVSAHLEDCKGQIEQLKLENSRLTADLSAQLQILTSTESQLKEVRSQHSRCVQDLAVKDELLCQLTQSNKEQATQWQKEEMELKHIQAELLQQQAVLAKEVQDLRETVEFIDEESQVAHRELGQIESQLKVTLELLRERSLQCETLRDTVDSLRAELASTEAKHEKQALEKTHQHSQELRLLAEQLQSLTLFLQAKLKENKAESEIILPSTGSAPAQEHPLSNDSSISEQTPTAAVDEVPEPAPVPLLGSVKSAFTRVASMASFQPTETPDLEKSLAEMSTVLQELKSLCSLLQESKEEATGVLQREICELHSRLQAQEEEHQEALKAKEADMEKLNQALCLLRKNEKELLEVIQKQNEKILGQIDKSGQLINLREEVTQLTQSLRRAETETKVLQEALEGQLDPSCQLMATNWIQEKVFLSQEVSKLRVMFLEMKTEKEQLMDKYLSHRHILEENLRRSDTELKKLDDTIQHVYETLLSIPETMKSCKELQGLLEFLS
With B2 the binding [6] was “binds”.

B3: KNSTRN (endogenous, mESCs) (protein, UniProt Q9D9Z1 1-312)
chain: MAAPEAEAQETAFRTTGPPTDSEPRPFPPSSRKFPFESAAADSNEDWAVAAEHYLKGSGENGGWEQPAPGVQPSHPATMASAKTVCDAQPHSMPSCGLPADTQTRATSKLPVKSKEADLLRHLHPGGPEPDVTKVTKSRRENGQVKAAETASRRNLRNSYKPFNKQKPEEELKDKNELLEAVNKQLHQKLTETQGELKDLTQKVELLEKFQDNCLALLESKGLNPGQETLASKQEPTTDHTDSMLLLETLKDELKVFNETAKKQMEELQALKVKLKLKEEESVQFLEQQTLCKDEASDFTIILEEMEQLLEM
For B3, the binding [6] was “binds”.
